Source: PubChem BioAssay AID1439 (NMMLSC, 2008)
In all, about 220,000 compounds went through this assay and about 770 (0.35%) were called active. Inconclusive results, whose numbers are uncertain, are shown with a selection of clear calls. No stated cut-off is given here; in the data, active means binding response below about 49% or above about 150%; inconclusive means no clear call, values can overlap the other calls; inactive means in between.

Sequences of proteins named here, by UniProt entry; tags and fusion partners are left off.
UniProt P09471, whole entry, looked up: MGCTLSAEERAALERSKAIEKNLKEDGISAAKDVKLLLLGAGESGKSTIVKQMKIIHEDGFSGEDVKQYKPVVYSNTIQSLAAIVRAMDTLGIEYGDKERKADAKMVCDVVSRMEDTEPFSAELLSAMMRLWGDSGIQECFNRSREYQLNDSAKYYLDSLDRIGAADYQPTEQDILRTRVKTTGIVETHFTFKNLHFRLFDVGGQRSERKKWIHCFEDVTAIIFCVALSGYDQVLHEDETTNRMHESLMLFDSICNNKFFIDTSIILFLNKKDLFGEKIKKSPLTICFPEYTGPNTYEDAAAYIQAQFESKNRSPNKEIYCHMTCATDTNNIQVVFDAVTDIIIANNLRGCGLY

biological target: Guanine nucleotide-binding protein G(o) subunit alpha (Homo sapiens) (UniProt P09471); assay: RGS7-Galphao binding modulators, primary screen, biochemical, multiplexed bead flow cytometry (AID 1439); settings: at 10 µM, actives lie on both sides;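 further: fluorescent Galphao held in activated GDP-AlF4 state binding bead-coupled RGS7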

Row | Compound | binding response (% of control)
1 | OC(CON=C1c2ccccc2-c2ccccc21)CN1CCNCC1 (stereo not given) | inactive: 94.4%
2 | CCOc1ccc(-n2c(C)cc(/C=N/N(C)C)c2C)cc1 | inconclusive: 93.5%
3 | COc1ccc(CCNC(=O)C(NC(=O)OCc2ccccc2)C(C)C)cc1OC (stereo not given) | inconclusive: 83.7%
4 | CSc1nc2ccsc2c(=O)n1-c1ccccn1 | inconclusive: 115%
5 | Cc1nc(SCc2ccccc2F)c2oc3ccccc3c2n1 | inconclusive: 97.5%
6 | CC(/C=C1\SC(=S)N(NS(=O)(=O)c2ccc(C)cc2)C1=O)=C\c1ccccc1 | inconclusive: 103%
7 | O=C(CSc1cccc[n+]1[O-])Nc1cccc(Oc2ccccc2)c1 | inconclusive: 129%
8 | C[N+]12CCCCC1[C@@H](CO)CCC2 (stereo not given in full) | inconclusive: 76.9%
9 | O=C(NC1CCCC1)C(c1ccsc1)N(C(=O)Cc1cccs1)c1ccccc1 (stereo not given) | inactive: 101%
10 | CN(CCc1cnn(C)c1)Cc1nc(CC2CC2)no1 | inactive: 94.8%
11 | O=c1oc2cccnc2n1CCS(=O)(=O)c1ccc(F)cc1 | inconclusive: 69.4%
12 | COc1ccc(/C=C/C(=O)c2ccccc2O)cc1 | inactive: 148%
13 | CN1CCC(N(C)C(=O)c2sc3cc(F)ccc3c2Cl)CC1 | inconclusive: 78.6%
14 | CCCn1c(=S)[nH]c2cc(Cl)ccc21 | inconclusive: 112%
15 | Cc1cccc(N(Cc2cc3cc(C)ccc3[nH]c2=O)C(=O)c2cccs2)c1 | inconclusive: 97.5%
16 | C/C=C\C=C/C(=O)Nc1cccc(C2=NOC3(C2)C[C@@H](C(N)=O)N(C(=O)COc2ccc(Cl)cc2)C3)c1 (stereo not given in full) | inconclusive: 89.6%
17 | O=C1NN(c2cccc(Br)c2)C(=O)/C1=C/c1ccc(-c2cc([N+](=O)[O-])ccc2O)o1 | inconclusive: 120%
18 | CN(C(=O)CSc1nnc(Nc2ccccc2)s1)C1CCS(=O)(=O)C1 (stereo not given) | inconclusive: 96.7%
19 | C/C(CC(=O)NCCN1CCOCC1)=N\NC(=O)c1ccncc1 | inconclusive: 102%
20 | COc1ccc(CS(=O)(=O)/C(Cl)=C(/Cl)C(=O)Nc2ccc(OC)nc2)cc1 | inactive: 106%

Retrieved by compound from the list above (two):
Row | Compound | binding response (% of control)
20 | COc1ccc(CS(=O)(=O)/C(Cl)=C(/Cl)C(=O)Nc2ccc(OC)nc2)cc1 | inactive: 106%
11 | O=c1oc2cccnc2n1CCS(=O)(=O)c1ccc(F)cc1 | inconclusive: 69.4%

Continued.

Row | Compound | binding response (% of control)
21 | Cc1cc2cc(CNC(=O)c3ccc(Br)o3)ccc2n1C | inconclusive: 69%
22 | CCn1c(SCC(N)=O)nnc1-c1ccco1 | inactive: 99.8%
23 | Cc1ccc(NC(=O)C2CC(=O)N(Cc3ccccc3)C2)cc1S(=O)(=O)N1CCCCCC1 (stereo not given) | inactive: 100%
24 | COc1ccc(Cn2c(C(C)C)nc3sc4ccccc4c(=O)c3c2=O)cc1 | inconclusive: 87.4%
25 | CCOC(=O)N/N=C(\CCC(=O)O)c1cccs1 | inconclusive: 94.8%
26 | CSc1nc2cc(S(=O)(=O)N3CCCCC3)ccc2s1 | inconclusive: 122%
27 | CC1CCc2sc(NC(=O)C3CC(Cl)=CCC3C(=O)O)c(C#N)c2C1 (stereo not given) | inactive: 106%
28 | O=C(NNc1ncnc2ccccc12)c1cccc(Cl)c1 | inconclusive: 101%
29 | c1ccc2c(c1)CCc1c-2nc2ccccc2c1N1CCOCC1 | inconclusive: 140%
30 | Cc1ccc(C(=O)/C=C/N(C)C)o1 | inconclusive: 114%
31 | Cc1nn(C(=O)Cn2ccc([N+](=O)[O-])n2)c(C)c1Br | inactive: 101%
32 | CCN(CC)Cc1ccccn1 | inconclusive: 119%
33 | O=S(=O)(Nc1ccccn1)c1ccc(C(F)(F)F)cc1Cl | inconclusive: 122%
34 | Cc1noc(C)c1CSc1nc2ccccc2n1C | inactive: 102%
35 | COc1ccc(N2CCN(C(=O)NCc3ccc(OC)c(Cl)c3)CC2)cc1 | inconclusive: 103%
36 | C[C@H](NS(=O)(=O)c1ccc(Cl)cc1)C(=O)OCC(=O)c1ccc[nH]1 | inconclusive: 92.7%
37 | COC(=O)C1=C(C(=O)OC)[C@@H]2N(C)c3ccc(OC)cc3[C@@]23C[C@@H](C(=O)OC)N(C(=O)c2ccc(Br)cc2)C3=N1 | inconclusive: 121%
38 | N#Cc1c(Nc2ccccc2C(F)(F)F)s[nH]c1=O | inconclusive: 113%
39 | COC(=O)c1ccc(CS(=O)(=O)c2ccccc2C)o1 | inactive: 89.5%
40 | O=C(N1CCN(CCO)CC1)N1c2ccccc2CCc2ccccc21 | inconclusive: 103%

Row | Compound | binding response (% of control)
41 | CSc1nc(SCCN(C)C)c2c3c(sc2n1)COC(C)(C)C3 | inconclusive: 106%
42 | O=C(O)CCCN1C(=O)/C(=C\c2ccc(-c3nc4ccccc4s3)o2)SC1=S | inconclusive: 92.8%
43 | COC(=O)N/N=C(\C)c1ccc(OC(F)F)cc1 | inconclusive: 99.1%
44 | O=C(c1ccc(C(=O)N2CCCCCC2)cc1)N1CCCCCC1 | inactive: 104%
45 | Cc1cccnc1NC(=O)C1CCCN(S(=O)(=O)c2ccc3c(c2)oc(=O)n3C)C1 (stereo not given) | inactive: 114%
46 | CCOC(=O)C1CCN(C(=O)CNS(=O)(=O)c2cccs2)CC1 | inactive: 99%
47 | CN(CC(=O)Nc1ccc(N2CCOCC2)cc1)C(=O)COc1ccccc1F | inconclusive: 105%
48 | CC(=O)Nc1cc(NC(C)=O)c(N=Nc2ccccc2)cc1C | inconclusive: 213%
49 | C=CCON1C(=O)C(=O)N(OCC=C)[C@H]2CCCC[C@H]21 | inconclusive: 83%
50 | Cc1nnsc1-c1c(C(=O)N2CCOCC2)c(C)nn1-c1ccccc1 | inconclusive: 118%
51 | Cc1ccc(NC(=O)CN(C)CC(=O)Nc2cccc(F)c2)cc1[N+](=O)[O-] | inconclusive: 93.4%
52 | Cc1cc(C)c2c(N)c(C(=O)c3ccccc3)sc2n1 | inconclusive: 96.5%
53 | COc1ccc(/C=C2\N=C(C)OC2=O)cc1[N+](=O)[O-] | inconclusive: 127%
54 | COc1ccc(CN(Cc2cccn2C)C(=O)c2cc3cc(OC)ccc3[nH]2)cc1 | inconclusive: 102%
55 | Cc1cc(C)cc(N2C(=O)CC(Cn3nc(C)cc3C)C2=O)c1 (stereo not given) | inconclusive: 125%
56 | CCCNC(=O)Nc1nc2ccccc2s1 | inconclusive: 89.7%
57 | CCn1c(S(=O)(=O)O)nc2ccccc21 | inconclusive: 99.6%
58 | O=C(CSCc1ccc(Cl)cc1)c1ccco1 | inactive: 106%
59 | O=C(O)c1cc(-c2cccnc2)nn1-c1ccccn1 | inactive: 99.8%
60 | CC(OC(=O)c1ccc(NS(=O)(=O)c2ccc3[nH]c(=O)[nH]c3c2)cc1)C(=O)Nc1cccc(Cl)c1Cl (stereo not given) | inconclusive: 113%
